Measured values taken from patent publication US20130289100.
At least one result comes from cells or an extract, where the contact may be indirect.

Chains of the proteins cited; added tags and fusions are not shown. A line that says so, or that is headed by a name, gives the form on record, which may keep a tag or linker.
GluA2Qflip AMPA receptor subunit (Rattus norvegicus), one chain, as listed by the source: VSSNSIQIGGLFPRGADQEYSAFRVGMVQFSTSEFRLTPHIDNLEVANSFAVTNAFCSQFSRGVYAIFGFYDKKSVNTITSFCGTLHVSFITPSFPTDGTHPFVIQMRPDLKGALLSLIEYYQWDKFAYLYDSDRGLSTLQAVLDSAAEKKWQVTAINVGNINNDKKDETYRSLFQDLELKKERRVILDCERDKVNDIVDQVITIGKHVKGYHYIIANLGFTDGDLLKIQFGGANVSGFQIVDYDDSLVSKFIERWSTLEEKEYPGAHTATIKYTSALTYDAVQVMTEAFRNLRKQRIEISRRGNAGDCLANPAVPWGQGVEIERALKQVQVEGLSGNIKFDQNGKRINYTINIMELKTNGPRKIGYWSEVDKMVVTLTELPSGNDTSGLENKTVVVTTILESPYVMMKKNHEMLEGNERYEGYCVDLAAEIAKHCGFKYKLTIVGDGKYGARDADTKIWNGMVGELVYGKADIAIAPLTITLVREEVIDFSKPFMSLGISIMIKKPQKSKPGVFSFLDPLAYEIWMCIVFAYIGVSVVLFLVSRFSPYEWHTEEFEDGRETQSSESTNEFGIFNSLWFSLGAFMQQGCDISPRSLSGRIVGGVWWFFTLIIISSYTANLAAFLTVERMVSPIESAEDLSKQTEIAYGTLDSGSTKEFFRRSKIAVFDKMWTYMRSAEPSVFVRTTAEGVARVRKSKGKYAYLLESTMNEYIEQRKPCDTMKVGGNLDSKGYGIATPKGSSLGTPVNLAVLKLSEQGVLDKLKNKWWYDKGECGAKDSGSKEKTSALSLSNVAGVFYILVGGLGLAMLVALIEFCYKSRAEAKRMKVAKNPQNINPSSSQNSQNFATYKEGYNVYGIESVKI

System: GluA2Qflip AMPA receptor subunit (Rattus norvegicus)
Assay: competition with a labelled probe
Conditions: binding unaffected by competitive inhibitor NBQX, data not shown; protein in a lysate after overexpression

GGGAGAAUUCAACUGCCAUCUAGGCAGAAGUGUAAUAGCCAACGGUGCCAGUCCGAAACGGAUCGUUAGAGCAUCAGUACUACAAGCUUCUGGACUCGGU [AF1422]
binding result: binds
